Percent effect of library compounds

Measurements from “University of Dundee, Small-Polar-MMV Screening Library” (2021), ChEMBL document CHEMBL3988442.

A: 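Whole-cell growth test on Mycobacterium tuberculosis, read after 4 days in a medium based on cholesterol and the lipid DPPC; the read-out is not stated. Concentration: 50 µM. The record gives no direction; compounds that gave an IC50 in retests scored well above the rest, so higher reads as more growth inhibition. Size under these conditions: about 69,000 compounds, about 370 of them at 50% or above in at least one test.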
B: 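Phenotypic screen: M. tuberculosis growth, glucose 7H9 medium, 3 days; the read-out is not stated. Concentration: 50 µM. The record gives no direction; compounds that gave an IC50 in retests scored well above the rest, so higher reads as more growth inhibition. Of about 69,000 compounds tested this way, about 760 (1.1%) reached 50% or more in at least one test.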

The filed quantity is “Percent Effect” (%). How 0% and 100% were set is not recorded. Most values in the screen are low, and negative values occur. The compounds are a random part of those screened. Two or more numbers in one place are separate tests of the same structure; such repeats can differ widely.

Compound	A	B
[H][C@@]12CS(=O)(=O)C[C@]1([H])N(C(=O)c1[nH]c3ccc(F)cc3c1C)CCN2C	4.055	17.41
O=C(O)C(F)(F)F.O=C(O)C(F)(F)F.O=C(O)C(F)(F)F.c1ccc(Cn2cc3c(n2)C(CNCC2CCOCC2)OCC3)nc1 (centres undefined)	-9.066	-0.03663 & -6.886
Cc1noc(C)c1C(C)C(=O)N1CCCN(Cc2cscn2)CC1 (centres undefined)	9.106	2.191
CCCS(=O)(=O)N1CCC(Oc2ccc(C#N)cc2)CC1	11.39	27.37
CCc1nc(NC2CC(=O)N(CC3CCCCC3)C2)ncc1C (centres undefined)	-2.32	5.028
Cc1nc(C)c(-c2nnc(SCC(=O)O)n2C(C)c2ccccc2)o1 (centres undefined)	3.947	27.78 & 3.657
Cc1cnc(N2CCn3c(CN4CCOCC4)nnc3C2)nc1.O=C(O)C(F)(F)F	-10.1	-9.142
OCc1cc(C2CCCN2c2ncccn2)n[nH]1 (centres undefined)	-19.85 & -0.6891	-28.24
Cc1nc(C2CCCN2C(=O)Cc2ccc(F)cc2)nc(O)c1C (centres undefined)	-3.033	2.837
Cc1nc(C)n(C2CCCN(C(=O)c3cn4c(C)cccc4n3)C2)n1 (centres undefined)	-5.267	-18.82
CCN(CC(=O)N(C)C)S(=O)(=O)c1cnc2c(c1)c(C)nn2C	-11.6 & -1.826	-36.45
Cc1ccc(N2CCc3c(CN(C)Cc4ccco4)cncc3C2)nn1.Cl.Cl	-8.846	52.5
Cc1cc(CNC(=O)C(c2ccc(F)cc2)N(C)C)n[nH]1 (centres undefined)	-14.81	-9.275
COc1ccc(COCC(O)CNC(=O)c2cccnc2)cc1 (centres undefined)	-21.73	-12.51
CC(C)(C)c1cnc(CN2CCC(NC(=O)NC3CCCCC3)CC2)o1	-14.32	-11.9
O=C1CC(Nc2ccc3nccnc3n2)CN1c1ccccc1 (centres undefined)	-1.574	-12.42
Cl.NCCCNS(=O)(=O)Cc1ccc(Br)cc1	9.554	5.264
CSc1ncn(-c2nc(N(C)C)nc(N(C)C)n2)n1	-4.997	5.545 & -8.315
O=C(O)C(F)(F)F.O=C(O)C(F)(F)F.O=C(c1c[nH]cn1)N1CCC(F)(F)C2(CCN(c3ccccn3)C2)C1 (centres undefined)	-6.05 & 22.73	-0.7081 & -2.358
Cn1nc2c(cc1=O)CN(CC(=O)Nc1nccs1)CC2	16.03	15.01
CN(C)c1ccc(NC(=O)c2cccc(N(C)C)c2)nc1	-29	-17.3 & -113.9
CCN(C(=O)C1Cc2cc(Cl)ccc2O1)C1CC1 (centres undefined)	-31.77	-26.12 & -0.3512
COc1cccc(CN2CCC(c3nnc(-c4cnc(C)cn4)o3)C2)c1 (centres undefined)	1.993	32.52
O=C(CC1CCCC1)NCCn1ccc(-c2ccncc2)n1	-0.5534	3.673
COc1cccc(CN(C)C(C)c2ccco2)c1OCCn1ccnc1 (centres undefined)	-8.842	-10.28
Cc1nc2c(NC(CC(C)(C)C)c3cccnc3)ncnc2o1 (centres undefined)	2.204	2.34 & 5.709
Oc1cccc(-c2cc(CC3(N(CC4CC4)CC4CC4)COC3)no2)c1	21.65	29.91 & 9.434
Cc1ccc(N2N=C(C(=O)NCC3CC3)S(=O)(=O)c3cccnc32)cc1	-13.82	10.91
CN(C)CC1(O)CCN(C(=O)c2cnc(-c3cccnc3)nc2)C1 (centres undefined)	12.34	-10.03
O=C(c1cccn1Cc1cccs1)N1CCN(C(=O)C2CC2)CC1	-13.92	-10.26
CN(C)CCn1ccnc1C1CCN(c2cc(N)nc(N)n2)CC1	10.61	-3.703
CC(NC(=O)C1=NN(C)C(=O)CC1)c1ccc(Cl)cc1 (centres undefined)	5.8	0.3178
CSc1ccc(OCCN2CCC(n3cncn3)CC2)cc1	-21.9	-11.93
C[C@@H]1CN(c2nc3c(cc2C(N)=O)CCC3)C[C@]1(C)O	17.06	12.88 & -3.604
CNC(=O)c1ccc(C2CN(c3cc(C)nc(N)n3)CCO2)nc1 (centres undefined)	3.245 & -19.03	-8.144
O=C(O)C(F)(F)F.[H][C@@]12CCN(C3CCOCC3)[C@@]1([H])CC(=O)N2Cc1csc(C)n1	-16.07	-0.8826
CC(=O)N1CCc2ncc(CNC(=O)C3CCC3)n2CC1	2.492	-0.2851
COc1ccnc(C(=O)N2CCCC(c3noc(C)n3)C2)c1 (centres undefined)	0.652	8.147
CC(C)Cc1cc(NC(=O)c2cccnc2)n(C)n1	25.53	39.38
Cc1ccc(C(=O)N2CCCC(N)CC2)cc1N1CCNC1=O (centres undefined)	-6.347 & -2.34	-21.59
CCn1nc(C)c(NC(=O)c2nnn(Cc3ccccc3)c2OC)c1C	6.528	-38.05
CCc1nc(C2CCCN2c2ncc(C(N)=O)cc2Cl)no1 (centres undefined)	-9.521	-0.3893 & -31.09
CCn1cc(Br)c(C(=O)NCc2cccnc2)n1	-28.05	-19.48
COc1ccc(Cl)cc1CCNC(=O)NCc1cnn(C)c1C	-1.743	0.3214
OCC1(CCOc2ccccc2)CCN(c2ccc(Cl)cn2)CC1	7.952	10.52 & 18.94
COC(=O)c1ccc(-c2cc(C(F)(F)F)cc(N(C)C)n2)cc1	-19.53	2.767 & 14.54
NC(=O)[C@@H]1Cc2ccccc2CN1S(=O)(=O)N1CCCCC1	-16.2	2.154
CCCNC(=O)c1cc2c(s1)CCN2C(=O)CN(C)C.O=C(O)C(F)(F)F	-0.1435	13.39

Repeated from the top, 3 entries:

[H][C@@]12CS(=O)(=O)C[C@]1([H])N(C(=O)c1[nH]c3ccc(F)cc3c1C)CCN2C gave A: 4.055%; B: 17.41%.
O=C(O)C(F)(F)F.O=C(O)C(F)(F)F.O=C(O)C(F)(F)F.c1ccc(Cn2cc3c(n2)C(CNCC2CCOCC2)OCC3)nc1 (centres undefined) gave A: -9.066%; B: -0.03663% & -6.886%.
Cc1noc(C)c1C(C)C(=O)N1CCCN(Cc2cscn2)CC1 (centres undefined) gave A: 9.106%; B: 2.191%.